PubChem BioAssay AID1671195, Yale University, 2021

Screen: 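Knockdowns that increase or decrease uptake of fluorescent LDL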 (primary screen)
Cell system: human Huh7 hepatoma cells
Knock-down reagent: siRNA pool against human genes, 18 nM
Time to read-out: about 2 to 2.5 days of knockdown, then 8 h LDL uptake
Conditions: DiI-labelled LDL at 30 µg/ml for 8 h, in lipoprotein-deficient serum medium
Read-out: 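Fluorescent LDL signal imaged in cells, scaled to the plate median, robust z-score for each replicate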
Reading the numbers: robust z-score: higher = more LDL uptake after knockdown
Hit rule: 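a gene counts as active if at least two replicate z-scores exceed ±2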
The deposit covers about 22,000 reagents; shown is a part drawn at random. Over the whole deposit, about 1,510 (6.9%) are marked active. 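Active includes knockdowns raising or lowering LDL uptake; positive z-scores mean more uptake, negative mean less.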

For SMIM14, the values are robust z-score, replicate 1 = 1.41; robust z-score, replicate 2 = 1.53; robust z-score, replicate 3 = 0.904; inactive.
LOC402695 (retired record) gave robust z-score, replicate 1 = 2.16; robust z-score, replicate 2 = 2.54; robust z-score, replicate 3 = 1.93; active.
For ADAM17 the deposit lists robust z-score, replicate 1 = 0.22; robust z-score, replicate 2 = 0.3; robust z-score, replicate 3 = 0.263; inactive.
POLD4 showed robust z-score, replicate 1 = -0.442; robust z-score, replicate 2 = -0.611; robust z-score, replicate 3 = -0.112; inactive.
Against NHLH2 the deposit lists robust z-score, replicate 1 = 0.647; robust z-score, replicate 2 = -0.0524; robust z-score, replicate 3 = 0.201; inactive.
Knock-down of PTTG1 resulted in: robust z-score, replicate 1 = -1.41; robust z-score, replicate 2 = -0.0847; robust z-score, replicate 3 = -1.19; inactive.
ARC gave robust z-score, replicate 1 = -1.2; robust z-score, replicate 2 = -0.998; robust z-score, replicate 3 = -1.32; inactive.
HHCM gave robust z-score, replicate 1 = 1.35; robust z-score, replicate 2 = -0.189; robust z-score, replicate 3 = 1.13; inactive.
Against PSMG1, the values are robust z-score, replicate 1 = 1.39; robust z-score, replicate 2 = -0.00176; robust z-score, replicate 3 = 0.698; inactive.
SIGLEC11 showed robust z-score, replicate 1 = -0.26; robust z-score, replicate 2 = 0.0722; robust z-score, replicate 3 = -0.0326; inactive.
Depletion of MPND came out at: robust z-score, replicate 1 = 4.92; robust z-score, replicate 2 = 3.84; robust z-score, replicate 3 = 4.25; active.
Depletion of DPH5 resulted in: robust z-score, replicate 1 = -1.02; robust z-score, replicate 2 = -0.92; robust z-score, replicate 3 = -0.405; inactive.
Silencing of GUSB came out at: robust z-score, replicate 1 = -1.5; robust z-score, replicate 2 = -0.817; robust z-score, replicate 3 = -1.04; inactive.
Depletion of RNFT1 resulted in: robust z-score, replicate 1 = -0.55; robust z-score, replicate 2 = -0.881; robust z-score, replicate 3 = -0.903; inactive.

Part of the list above, reduced to “robust z-score, replicate 3”:
LOC402695 (retired record)	1.93
ADAM17	0.263

The list goes on.
Depletion of CCDC13 resulted in: robust z-score, replicate 1 = -0.435; robust z-score, replicate 2 = 0.0501; robust z-score, replicate 3 = 0.672; inactive.
With knock-down of ACAP1, the screen gave robust z-score, replicate 1 = 1.39; robust z-score, replicate 2 = 0.938; robust z-score, replicate 3 = 0.811; inactive.
After knock-down of FGD5, the screen gave robust z-score, replicate 1 = 0.169; robust z-score, replicate 2 = 1.02; robust z-score, replicate 3 = -0.169; inactive.
GIPC3 showed robust z-score, replicate 1 = -2.46; robust z-score, replicate 2 = -2.43; robust z-score, replicate 3 = -2.52; active.
After knock-down of ORC2, the record shows robust z-score, replicate 1 = -0.00648; robust z-score, replicate 2 = -0.361; robust z-score, replicate 3 = 0.302; inactive.
UBAP1L gave robust z-score, replicate 1 = 0.578; robust z-score, replicate 2 = 0.872; robust z-score, replicate 3 = 0.359; inactive.
For PLPP3 the deposit lists robust z-score, replicate 1 = -0.892; robust z-score, replicate 2 = -1.03; robust z-score, replicate 3 = -0.551; inactive.
For C12orf43, the values are robust z-score, replicate 1 = 0.848; robust z-score, replicate 2 = 1.32; robust z-score, replicate 3 = 1.08; inactive.
LOC440936 (retired record) showed robust z-score, replicate 1 = 0.363; robust z-score, replicate 2 = 1.1; robust z-score, replicate 3 = 1.37; inactive.
C1QL4 gave robust z-score, replicate 1 = -1.44; robust z-score, replicate 2 = -1.39; robust z-score, replicate 3 = -1.33; inactive.
